Data from article PMC4585835 (Scientific Reports, 2015).
Where two headings read alike, the source gives them in different places.

Legend:
[1] = target: T1, human thrombin (Homo sapiens, UniProt P00734); design: method as in PMID 24354772; settings: Chromozym TH, excerpted from a previously published study ref 15; cited from earlier work
T1 construct: purchased National Institute for the Control of Pharmaceutical and Biological Products (Beijing, China)

[2] = target: T1, human thrombin; test: Inhibition of human thrombin-catalyzed hydrolysis of Chromozym TH; assay type: biochemical; settings: 25 °C, pH 7.4
Description: The inhibition constant (Ki) was determined as reported previously. A 0.05 mL of peptide solution (concentration 10, 25, 50, 100, 150, 500 and 1000 nM, respectively) was added to 0.4 mL mixture of Hepes buffer (10 mM Hepes, 10 mM Tris, 0.1 M NaCl, 0.1% PEG 6000, pH 7.4) and bovine or human thrombin (0.25 NIH). The resulting solution was incubated at 25 °C for 2 min, followed by the addition of 0.05 mL Chromozym TH (concentration 25, 33, 40, 50, 100, 125, 200, 330, 500, and […], respectively). The absorbance at 405 nm was measured using a Beckman DU640 spectrometer. The inhibition constant (Ki) was determined using the following equation (Eq.1) originally developed for competitive inhibition processes[25]:
Herein, S is the initial substrate concentration; I is the inhibitor concentration; v is the initial steady-state velocity; Vmax is the limiting maximal velocity; and Km is the dissociation constant of the complex.

Row | Compound | Ki [1] [nM] | Ki [2] [nM]
1 | CC[C@H](C)[C@H](NC(=O)[C@@H]1CCCN1C(=O)[C@H](CCC(=O)O)NC(=O)[C@H](Cc1ccccc1)NC(=O)[C@H](CC(=O)O)NC(=O)CNC(=O)[C@H](CCC(N)=O)NC(=O)CNC(=O)CNC(=O)CNC(=O)CNC(=O)[C@@H]1CCCN1C(=O)[C@H](CCCNC(=N)N)NC(=O)[C@@H]1CCCN1C(=O)[C@H](N)Cc1ccccc1)C(=O)N1CCC[C@H]1C(=O)N[C@@H](CCC(=O)O)C(=O)N[C@@H](CC(=O)O)C(=O)N[C@@H](C)C(=O)N[C@@H](Cc1ccc(O)cc1)C(=O)N[C@@H](CC(=O)O)C(=O)N[C@@H](CCC(=O)O)C(N)=O [Peptide 1] | 5.8 ± 0.55 | 
2 | CCCCCCCCCCCCCCCCCC(=O)NCCCC[C@H](NC(=O)CNC(=O)[C@@H]1CCCN1C(=O)[C@H](CCCNC(=N)N)NC(=O)[C@@H]1CCCN1C(=O)[C@H](N)Cc1ccccc1)C(=O)NCC(=O)NCC(=O)N[C@@H](CCC(N)=O)C(=O)NCC(=O)N[C@@H](CC(=O)O)C(=O)N[C@@H](Cc1ccccc1)C(=O)N[C@@H](CCC(=O)O)C(=O)N1CCC[C@H]1C(=O)N[C@H](C(=O)N1CCC[C@H]1C(=O)N[C@@H](CCC(=O)O)C(=O)N[C@@H](CC(=O)O)C(=O)N[C@@H](C)C(=O)N[C@@H](Cc1ccc(O)cc1)C(=O)N[C@@H](CC(=O)O)C(=O)N[C@@H](CCC(=O)O)C(N)=O)[C@@H](C)CC [Peptide S2] |  | 11.7 ± 0.46
